Reference: publication PMC7819943, “Rice protein-binding microarrays: a tool to detect cis-acting elements near promoter regions in rice”
The list shows a part of the results.

The sequences below were run against T1, OsSMF1 (Oryza sativa, UniProt Q6ZLB0 1-436) (assay: protein-binding microarray (RPBM); PBS, 2% BSA, 51.3 ng/ul salmon testes DNA, 50 uM zinc acetate, 200 nM TF, 25 C, 1 h; high values mean tight binding). Conditions: protein: recombinant; tags: N-terminal polyhistidine and DsRed monomer fusion (pET32a); chain copies: 2; label: CyDye5-dUTP incorporated in the synthesized complementary strand; 3' TTTTT single-stranded linker to array surface; dsDNA, one strand shown.
T1 sequence: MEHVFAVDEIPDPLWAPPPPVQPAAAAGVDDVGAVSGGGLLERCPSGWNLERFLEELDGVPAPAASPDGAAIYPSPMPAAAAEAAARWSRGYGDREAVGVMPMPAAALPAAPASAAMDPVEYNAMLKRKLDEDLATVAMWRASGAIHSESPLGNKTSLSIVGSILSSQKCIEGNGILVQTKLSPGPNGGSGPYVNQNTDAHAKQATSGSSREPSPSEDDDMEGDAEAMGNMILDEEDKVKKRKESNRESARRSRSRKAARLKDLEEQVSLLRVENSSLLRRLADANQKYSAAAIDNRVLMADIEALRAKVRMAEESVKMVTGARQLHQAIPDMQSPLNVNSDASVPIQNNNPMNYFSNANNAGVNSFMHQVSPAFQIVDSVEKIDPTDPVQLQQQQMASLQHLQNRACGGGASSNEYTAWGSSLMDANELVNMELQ
In short: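 Using Ni–NTA, transcription factors fused N-terminally to polyhistidine and DsRed were purified after expression in E. coli BL21-CodonPlus. These were incubated at 200 nM with a blocked, double-stranded custom Agilent array for 1 h at 25 °C in a buffer containing 50 µM zinc acetate, and the array was washed. The binding signal is per-feature fluorescence intensity (arbitrary units) on an Axon 4000B scanner.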

**Q.** With “GCTGTAATCCTCGCTGTCACTGGACCGTGGTTTTGGCTGCCGGAGTCACCTAGTGCAG” as the sequence, how does the binding signal read?
**A.** The binding signal was 3640 fluorescence intensity (a.u.).

**Q.** How did the binding signal turn out when “CGCTCCCGGCCATGTCGACAGCTGAGCTGACAAAAGGCGCCGGAGTCACCTAGTGCAG” was run?
**A.** Its binding signal is 3770 fluorescence intensity (a.u.).

**Q.** Which binding signal does the source give for “AGAGAGAAGGGGAGGGTGAGGTGGACAGGAGAAGATAAGGCGGAGTCACCTAGTGCAG” here?
**A.** The binding signal was 3280 fluorescence intensity (a.u.).

**Q.** For “GCGCCACATAATTGTAGTCATCCTGCCGGTAACCATTTCGCGGAGTCACCTAGTGCAG”, which binding signal is on record?
**A.** The binding signal was 3690 fluorescence intensity (a.u.).

**Q.** “ATGACTTTTGCAGCCCTGTTGAAGTCCATGTCATTTGCAACGGAGTCACCTAGTGCAG” was tested. Which binding signal did it give?
**A.** Its binding signal is 4590 fluorescence intensity (a.u.).

**Q.** With “GTACTACCGCCGTGGCCATATCGCTCATTCATGATTCATCCGGAGTCACCTAGTGCAG” as the sequence, how does the binding signal read?
**A.** Its binding signal is 6390 fluorescence intensity (a.u.).

**Q.** With “ATTTCGCACAGATTTCGATTTGTGGCTGACACCATCCTATCGGAGTCACCTAGTGCAG” as the sequence, how does the binding signal read?
**A.** Its binding signal is 5010 fluorescence intensity (a.u.).

**Q.** Which binding signal does the source give for “CAAAAGTGGTCCTTGTGTTTGTGTGGCATTAGGATTAGGTCGGAGTCACCTAGTGCAG” here?
**A.** Its binding signal is 3210 fluorescence intensity (a.u.).

**Q.** How did the binding signal turn out when “GCTAGCTCCCCTCCGCGTGTGTGTTTATAGGCTTATAGCTCGGAGTCACCTAGTGCAG” was run?
**A.** Its binding signal is 3950 fluorescence intensity (a.u.).

**Q.** With “CCTTGATGACATGCTCTGACAGCTCATGAGTTCTACTGGACGGAGTCACCTAGTGCAG” as the sequence, how does the binding signal read?
**A.** Its binding signal is 6860 fluorescence intensity (a.u.).

**Q.** How did the binding signal turn out when “CGTGCTCCAGATTTATGAATAAAATATGCCGAATGCCGTACGGAGTCACCTAGTGCAG” was run?
**A.** The binding signal was 28100 fluorescence intensity (a.u.).

**Q.** Which binding signal does the source give for “TCCACTTGTCCATGGGCCCCACTTGTCAGTGACACTTGTCCGGAGTCACCTAGTGCAG” here?
**A.** Its binding signal is 3140 fluorescence intensity (a.u.).

**Q.** With “ATCTACTACACACATGACACATTCCCATCTTTCCAATGTCCGGAGTCACCTAGTGCAG” as the sequence, how does the binding signal read?
**A.** The binding signal was 3360 fluorescence intensity (a.u.).

**Q.** “CAAGGAAGAATATGCCACCTCCACGGAGGCCGGCGGCGGCCGGAGTCACCTAGTGCAG” was tested. Which binding signal did it give?
**A.** The binding signal was 3710 fluorescence intensity (a.u.).

**Q.** With “AAGTAGGAGTCATTGAGTATACACCTAACCATTCAATCCACGGAGTCACCTAGTGCAG” as the sequence, how does the binding signal read?
**A.** The binding signal was 3360 fluorescence intensity (a.u.).

**Q.** How did the binding signal turn out when “CCATTCAAAAGTGGGCTACGTGGCCTTATATGTTGCTTGCCGGAGTCACCTAGTGCAG” was run?
**A.** The binding signal was 5470 fluorescence intensity (a.u.).

**Q.** How did the binding signal turn out when “CTGTTAGACACCCGCCTCCACGTCACGGGAGCGCATCTCCCGGAGTCACCTAGTGCAG” was run?
**A.** Its binding signal is 15700 fluorescence intensity (a.u.).

**Q.** Which binding signal does the source give for “GTCGCCGGTCGTCATCAGGTCACTCTACGCCGGCTGATCCCGGAGTCACCTAGTGCAG” here?
**A.** Its binding signal is 5160 fluorescence intensity (a.u.).

**Q.** For “TGGCCAAATAACTCTGTGCTGGCGTGGCTAAACGACGCTCCGGAGTCACCTAGTGCAG”, which binding signal is on record?
**A.** Its binding signal is 8080 fluorescence intensity (a.u.).

**Q.** For “CAGCTACTACATGTTTTCTCCGTCCAGTCATAGATTTGATCGGAGTCACCTAGTGCAG”, which binding signal is on record?
**A.** Its binding signal is 5380 fluorescence intensity (a.u.).

**Q.** For “GGTGGTGGTGGTGGTGGTGGTGGTGTAGGAGGAGGAGGAGCGGAGTCACCTAGTGCAG”, which binding signal is on record?
**A.** Its binding signal is 5140 fluorescence intensity (a.u.).

**Q.** With “CAATAGCGACTGCCATAATTCAACGAATGGGCATGGTTATCGGAGTCACCTAGTGCAG” as the sequence, how does the binding signal read?
**A.** Its binding signal is 22300 fluorescence intensity (a.u.).

**Q.** With “CTTGATGGTGTTCCATGCATCTTGACTTCTTGAGAAGCTACGGAGTCACCTAGTGCAG” as the sequence, how does the binding signal read?
**A.** Its binding signal is 3410 fluorescence intensity (a.u.).

**Q.** “CTGTAACTTTCAAAAGATTCATCTGCAAAGTACGTGTCACCGGAGTCACCTAGTGCAG” was tested. Which binding signal did it give?
**A.** The binding signal was 5880 fluorescence intensity (a.u.).

**Q.** With “ATCCTGCCATCGTCGGGAAGCAAGGATGGTCGGGGAAGACCGGAGTCACCTAGTGCAG” as the sequence, how does the binding signal read?
**A.** The binding signal was 4970 fluorescence intensity (a.u.).

**Q.** “TGGGCCCACCACAAACCCGCAGGCGCCGCATCTTCTCTCTCGGAGTCACCTAGTGCAG” was tested. Which binding signal did it give?
**A.** Its binding signal is 3270 fluorescence intensity (a.u.).

**Q.** “AGTTTCGGAAGAAATCTGCCTCGTCCGATTCTGTGGCCATCGGAGTCACCTAGTGCAG” was tested. Which binding signal did it give?
**A.** The binding signal was 30700 fluorescence intensity (a.u.).

**Q.** With “CGGTACGCGCCGCCGCCGCCGCCGCCACCGCCACCGCCGCCGGAGTCACCTAGTGCAG” as the sequence, how does the binding signal read?
**A.** Its binding signal is 3570 fluorescence intensity (a.u.).

**Q.** How did the binding signal turn out when “AAAAGGAGGTTTAACCTGTCACCTGTCAGTGCTAGCTCTGCGGAGTCACCTAGTGCAG” was run?
**A.** Its binding signal is 4570 fluorescence intensity (a.u.).

**Q.** For “GGGTTGTGGTTGTTGTACGTTGTTGTTGACGGCGATGGTTCGGAGTCACCTAGTGCAG”, which binding signal is on record?
**A.** The binding signal was 3460 fluorescence intensity (a.u.).

**Q.** For “CATTTTCCAGGCCAAGCCAGCTCACATCACCAGAGCAACACGGAGTCACCTAGTGCAG”, which binding signal is on record?
**A.** The binding signal was 3720 fluorescence intensity (a.u.).

**Q.** Which binding signal does the source give for “CCGCCGTGAAGCACACCACCACCAACCCCATCGCTCCCTCCGGAGTCACCTAGTGCAG” here?
**A.** Its binding signal is 64500 fluorescence intensity (a.u.).

**Q.** For “AGAGCATGTCTATGGTGACAGTTATGCCTAACAGAACACACGGAGTCACCTAGTGCAG”, which binding signal is on record?
**A.** The binding signal was 32700 fluorescence intensity (a.u.).

**Q.** Which binding signal does the source give for “TACATCTCGTGTGTGGGACCCGGAGAAAGCGGTTGGTGGACGGAGTCACCTAGTGCAG” here?
**A.** Its binding signal is 27000 fluorescence intensity (a.u.).

**Q.** Which binding signal does the source give for “GTGGAGGCGATCCAGAGCGGGATAGATGCGAACGCTGTTCCGGAGTCACCTAGTGCAG” here?
**A.** Its binding signal is 29800 fluorescence intensity (a.u.).

**Q.** “TAGGATTCGATCCCACGTCCCGGTTCTTTCGCGTCCATCCCGGAGTCACCTAGTGCAG” was tested. Which binding signal did it give?
**A.** The binding signal was 4560 fluorescence intensity (a.u.).

**Q.** For “CCACGCGGCCACGCAACGATCCCCTTTTAGTTTCTGCGCTCGGAGTCACCTAGTGCAG”, which binding signal is on record?
**A.** Its binding signal is 5590 fluorescence intensity (a.u.).

**Q.** With “ATAGTAGAGAAGGGATTTGCATCATCAAATATCGCCGTAGCGGAGTCACCTAGTGCAG” as the sequence, how does the binding signal read?
**A.** The binding signal was 3180 fluorescence intensity (a.u.).

**Q.** How did the binding signal turn out when “TGGCTCACAGCTTTGCATTCGGCAGCTAACGCCACGCCCACGGAGTCACCTAGTGCAG” was run?
**A.** The binding signal was 22300 fluorescence intensity (a.u.).

**Q.** “GCTGCATGCCTGCAAAATTTAACACCACCTAGAGAGATCACGGAGTCACCTAGTGCAG” was tested. Which binding signal did it give?
**A.** Its binding signal is 24400 fluorescence intensity (a.u.).

**Q.** How did the binding signal turn out when “ACCGCCGCCGCCGCCGCCCGCGCCGCCGACGAGATAGAGACGGAGTCACCTAGTGCAG” was run?
**A.** The binding signal was 3520 fluorescence intensity (a.u.).

**Q.** For “ACCTACTAACTTATCTTTCATCCCCTGGTAAATCTAGTCGCGGAGTCACCTAGTGCAG”, which binding signal is on record?
**A.** Its binding signal is 4600 fluorescence intensity (a.u.).

**Q.** How did the binding signal turn out when “TAATTTCTTGATGATGTGGAGTTTATGGAAACCATATTTACGGAGTCACCTAGTGCAG” was run?
**A.** The binding signal was 7250 fluorescence intensity (a.u.).

**Q.** With “GTGTTTGGGGTTCTTGGAATTGATCATGGCAGGTGGCGAACGGAGTCACCTAGTGCAG” as the sequence, how does the binding signal read?
**A.** Its binding signal is 13500 fluorescence intensity (a.u.).

**Q.** Which binding signal does the source give for “TCGGTGACAAAGGTGGTGGGATCTTGCTTCTCTTCCTGCACGGAGTCACCTAGTGCAG” here?
**A.** The binding signal was 3160 fluorescence intensity (a.u.).

**Q.** How did the binding signal turn out when “AGGGTGGGTTACGTCGACAGACACTGGATAAGATCAATCCCGGAGTCACCTAGTGCAG” was run?
**A.** The binding signal was 4130 fluorescence intensity (a.u.).

**Q.** Which binding signal does the source give for “AAAATTAAATTTAACCATGTCATTTTATTTCTCACACTTGCGGAGTCACCTAGTGCAG” here?
**A.** The binding signal was 3540 fluorescence intensity (a.u.).

**Q.** Which binding signal does the source give for “GCGGCAGGTTTCGGCGGCGGGGCGGGCGGCAGGTGTCGGCCGGAGTCACCTAGTGCAG” here?
**A.** The binding signal was 3890 fluorescence intensity (a.u.).

**Q.** Which binding signal does the source give for “CCCTTTGACCTACCGCGGCGCCGCCCACCTGCGCCGGCATCGGAGTCACCTAGTGCAG” here?
**A.** The binding signal was 3490 fluorescence intensity (a.u.).

**Q.** With “GTGTGACCCTGCGTGTGCAGCGTGAGCTGGGGTGGAGCTGCGGAGTCACCTAGTGCAG” as the sequence, how does the binding signal read?
**A.** Its binding signal is 3570 fluorescence intensity (a.u.).

**Q.** For “TGCATTGTTTTGGTTGTAGACGTGGTTTGATAATAGTTGGCGGAGTCACCTAGTGCAG”, which binding signal is on record?
**A.** Its binding signal is 10300 fluorescence intensity (a.u.).

**Q.** “GAAATTTACTAACATGGGATCAGATATCGTGTCATTATTACGGAGTCACCTAGTGCAG” was tested. Which binding signal did it give?
**A.** The binding signal was 4190 fluorescence intensity (a.u.).

**Q.** Which binding signal does the source give for “ATTGCTTTATATGGTTATTTAAGTTTATTTTGCATCCCTACGGAGTCACCTAGTGCAG” here?
**A.** Its binding signal is 22600 fluorescence intensity (a.u.).

**Q.** For “CCACTGCCCTGTCTTTGCACACATCAGTCTTCCCGGAGTTCGGAGTCACCTAGTGCAG”, which binding signal is on record?
**A.** The binding signal was 4400 fluorescence intensity (a.u.).
